# Results from one PubChem assay

Source: PubChem BioAssay AID1159506 (NCATS, 2015).

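Genome-wide siRNA knockdown in TC32 Ewing sarcoma cells, comparing luciferase light from an NR0B1-promoter reporter with a CMV-promoter reporter 48 hours after transfection.
Each siRNA was applied at 20 nM.
A z-score of the log NR0B1-over-CMV signal, less the median of siRNAs with the same seed; more negative means a stronger specific loss of the NR0B1 reporter.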

The strongest results of the screen are mostly left out here.
Sequences are the guide (antisense) strand, without overhang.

| siRNA | gene | seed-corrected z-score |
|---|---|---|
| `AUCGUCACCAUCAUAGACC` | EBP | 0.5826 |
| `UAACUUGCAUCAUGAGUAC` | TMEM106B | -1.092 |
| `UGCCUUACCAAUUGCUCCC` | GARS | -0.3569 |
| `UAUAUGUCCAGCAAUCUCC` | PUM1 | -0.9266 |
| `UGUUUCGGUACUGUCAUCC` | CIZ1 | -0.5362 |
| `UCUUGGUCAUUGGUCUUUC` | TBC1D15 | -0.7375 |
| `UUAGAGGAAAGUCCUGUAC` | PTPN2 | 0.5846 |
| `UUCGGACUAAUUUUCUCAG` | SLC39A6 | 0.4119 |
| `UAAAUACGUAUAAAUUGCC` | TMC1 | 0.2013 |
| `UUAUUGUUUUAGAUAGUCC` | ALCAM | 0.5502 |
| `UUCGUAAGAAGCAAAACCU` | CPLX1 | 0.02229 |
| `UACUAAACCUCUCCUUUGG` | PRAMEF2 | 0.5062 |
| `UUGGGAAACAUAACGGUAG` | CDYL | -1.037 |
| `AUUUGUUCUACUAAGUUUC` | PMAIP1 | 2.735 |
| `UACACGCUUAUGGUUGUUG` | ZNF34 | -0.3824 |
| `UCUUCAAGCCGAGUUCUGG` | NPY | -0.6842 |
| `AAUUCGAUCACAUCAUCAC` | PDIA6 | -0.3041 |
| `AAUAAUCCCAAGAAGAUUG` | TRPC7 | 0.3064 |
| `UUGCCGGCAAAUAUCAGAC` | UBA52 | 0.3263 |
| `AACUUCUUAGUGCCUUUGC` | GJA8 | -0.1969 |
| `UUACUAUCUUGAAAGAGCC` | AHR | -0.03126 |
| `AACGUGACAAACCCGAACC` | MSI1 | -0.3688 |
| `UCAAUUGUCCUGUAGUACU` | KRT17 | 0.005473 |
| `AGAGUAACGACCAUCUUGG` | AZGP1 | -0.9036 |
| `UACGUCGUGAAGACCACCG` | GET4 | 0.5202 |
| `AACCUUGUCGUUGAUGAGC` | NPTX2 | 0.0005323 |
| `UGCACUUCAAGGUACAUGG` | NCAM1 | -0.2794 |
| `UGACUUACACUUGCUCUCC` | CLIP2 | 0.4918 |
| `AAAGAUUCCCACUAAUUGC` | YIPF1 | 0.4653 |
| `UUACGAAAAACUGCACCAC` | THOC2 | -0.07889 |
| `AGAGUUGAGGUUGUGGAUG` | ORAI3 | -1.055 |
| `UGACUCUCCGUUGAUGUGG` | MAGIX | -0.8536 |
| `AUUCCGACAAGCACAAACC` | ANKLE2 | 0.782 |
| `AUUACAUAAGACAUUAUCC` | PNPLA3 | 0.7897 |
| `UUAGGUGCCUUGUCUGUUG` | MYLK2 | -0.6222 |
| `UCUUAAACUCAUAAUAAGC` | SFSWAP | 0.1826 |
| `UUUCCAUCUAGUUCUAUCG` | RAB8B | -0.8407 |
| `UAAUUUGUUGAUCGUGUCC` | NEFL | -0.7046 |
| `UUUGUUGUAUGCUUCUAGG` | GBAS | -0.1049 |
| `UCAAUAUCAAGGCUGAAUG` | GPR107 | -0.4042 |
| `UGUAUUUUCCGAACUCAGC` | PM20D1 | 0.4486 |
| `UCCAUGCAGAGGUAUCUUC` | FGF23 | 1.994 |
| `UACCGUAAUGUACUGAUAG` | KIF3A | 0.4138 |
| `UGCUCAAUAAAGACCAACC` | CFD | -0.8916 |
| `AAUGAUACAAGGCCGAAGC` | CCNE1 | -2 |
| `UGAGGUUCAUGAGAUUGGG` | SEC61A2 | -0.1718 |
| `UUCUGUUCCACUAUUGAAG` | FAM19A2 | -1.611 |
| `UAGGGUCCAAUGCAGACAG` | MRFAP1 | -1.155 |
| `UUUCCGUAAAACUUAGAGC` | CFI | -0.326 |
| `UUCGGGAUUUCAAGGAUAG` | CNTN6 | 0.0733 |
| `UCCACAAUAAGGAAGAUGU` | HCN2 | 0.3 |
| `UUUGUUGGUACCAACUUGU` | CCL18 | -0.9535 |
| `UAGUAUUAAUGCUGCUUCC` | DNAJC19 | -0.5039 |
| `UCUUUUUCAGCCGUAGUUC` | SAMD5 | 0.5443 |
| `UCAUUGACAAUGUUCAUGA` | ADAMTS2 | 0.2577 |
| `UCAGACUGAAAUAUGUGCG` | ZNF468 | -0.9032 |
| `AACUUUCAACUCUACAACC` | UBE2O | 0.2691 |
| `ACAGUUGUCACCGUACUGG` | CYP11B2 | -0.7627 |
| `UCGUAAAUCAGCUCUAACG` | EPRS | -0.1087 |
| `UUCAGAAUCAAUGACAGCA` | CD69 | 0.6755 |
| `UAAGAUUUAUCAUUGCGCC` | COL4A6 | 0.4664 |
| `UCAAACUCCACUAUUGUCU` | C1orf123 | -0.6849 |
| `UUACUGAUAUGUCCUACUC` | GALNTL5 | -0.3958 |
| `AGAUUCAUAACCAUUCCCG` | PTS | 0.7921 |
| `UGUCUUAUCAUCCAUCGUG` | NCAPG | -0.4772 |
| `UCUCUGCAUGUAGAAACCG` | HSPA1A | -0.5081 |

The first 5 entries again:

siRNA,gene,seed-corrected z-score
AUCGUCACCAUCAUAGACC,EBP,0.5826
UAACUUGCAUCAUGAGUAC,TMEM106B,-1.092
UGCCUUACCAAUUGCUCCC,GARS,-0.3569
UAUAUGUCCAGCAAUCUCC,PUM1,-0.9266
UGUUUCGGUACUGUCAUCC,CIZ1,-0.5362